Measurements taken from the supplement of paper PMC5949888.
Most values lie at the floor of the assay. Slopes are relative: functional sequences can read slightly below zero.

system: Saccharomyces cerevisiae PS128 hsf1 delta, HSF1(1-493) fusion; assay: growth estimate (transactivation domain function in HSF1 fusion, heat-shock survival) (a.u. (slope of normalised read count over time)); higher = stronger growth at 37°C, i.e. more transactivation activity; details: library: random library
Protocol: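 Random 60-nt DNA library encoding peptides of up to 20 aa, fused to the C-terminus of yeast HSF1 residues 1-493 (C-terminal TAD deleted) and expressed from the native HSF1 promoter on a CEN plasmid in hsf1-deleted S. cerevisiae PS128. Cells were selected at 37°C on -trp 5-FOA plates for 0, 2, 4, 6 and 8 days and amplicons were sequenced. Growth estimate is the slope of a robust linear fit of total-sum-normalised read counts (normalised to the first time point) over time, using at least 2 replicates. Sequences are classed functional (TAD activity) above a threshold of -0.13, set from stop-codon control sequences.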

Row | Substance | growth estimate
1 | ECVCGYSLEPSWC | -0.0376
2 | PSQNCERS | < -0.25
3 | EHWSDQPGSALVQSRN | < -0.25
4 | LSTGEALS | < -0.25
5 | TSQKISDGTRLRSQNIRTPF | < -0.25
6 | EIIASSCNFHCESRVIGWAV | < -0.25
7 | VANRQQGREAQSPALSGVPR | < -0.25
8 | RLRGRTSGFQGEFRADPQRS | < -0.25
9 | PRRG | < -0.25
10 | RCIYMLQDYCTATSLLQIRQ | < -0.25
11 | DCRILWCFNAARLVVIPQDC | < -0.25
12 | STA | < -0.25
13 | VARSFVSS | < -0.25
14 | PAEQSFLGILWGHYLPLARI | < -0.25
15 | GCKSASAMAWRNQ | < -0.25
16 | RGDWRKEILLARRQQTGGDS | < -0.25
17 | KCLVLGYQHLTVKIIPKLTR | < -0.25
18 | TPCTFKLDNW | < -0.25
19 | ARVEF | < -0.25
20 | SATHFLEYVSRAFVANPQTV | < -0.25
21 | EKKGLISAMLREADAVATSP | < -0.25
22 | HQSFDFFPGA | < -0.25
23 | VQMLYGRNNYLCRN | < -0.25
24 | IVGKWIVYI | < -0.25

Row | Substance | growth estimate
25 | FSAC | < -0.25
26 | LEPRPSRPERFSNDSCLTYR | < -0.25
27 | NSRPDVRSGRAPVTK | < -0.25
28 | SCLVFLLTFTCYVP | < -0.25
29 | SVGNKLSVMRIMVSGFRYSN | < -0.25
30 | FRAYGEVRRTRLS | < -0.25
31 | KGIGRR | < -0.25
32 | LRDRGASAKGGS | < -0.25
33 | DIAAPGGPCKSLGIW | < -0.25
34 | TDISGSTGR | < -0.25
35 | LYYILSLVRVQKGYLRMETG | < -0.25
36 | KLSSGSLADREMGTPT | < -0.25
37 | SRAELICSSVGRSHHASNPT | < -0.25
38 | GQRGDFRQW | < -0.25
39 | GTQLRLLSGQSREILSFGCG | < -0.25
40 | PLGPRNQEYGCAGYVGNDKS | -0.24
41 | RGNLVLNCGVPECP | < -0.25
42 | LKRTLQEGYKGGLQFLIARL | < -0.25
43 | RTRSTPGDRRIGNCDHTEPA | < -0.25
44 | RSGFRYCRRRVRL | < -0.25
45 | VGLCENESLDDHHRTLGVDH | < -0.25
46 | IHFWVLLLEAAGKRRSVRSG | < -0.25
47 | CETCNRPVHIRWMG | < -0.25
48 | HRESRLHRG | < -0.25

Taken from above:
growth estimate with NSRPDVRSGRAPVTK is entered as < -0.25
growth estimate with LYYILSLVRVQKGYLRMETG is entered as < -0.25
growth estimate with DIAAPGGPCKSLGIW is entered as < -0.25
growth estimate with LRDRGASAKGGS is entered as < -0.25
growth estimate with SVGNKLSVMRIMVSGFRYSN is entered as < -0.25
growth estimate with IHFWVLLLEAAGKRRSVRSG is entered as < -0.25
growth estimate with GQRGDFRQW is entered as < -0.25

More results

Row | Substance | growth estimate
49 | PELRSLARNAALKALQHGLV | < -0.25
50 | SVQERVVGYDGPFKRGERRF | < -0.25
51 | RPSNLAQSEVGYGDGADTCV | < -0.25
52 | SGFDPPAYLLEDIQLDDLAR | < -0.25
53 | SPCRDRQHLRTMLEQIGFGV | < -0.25
54 | HFVPMIAVRN | < -0.25
55 | SVTARRALVCLPFSGQGKTK | -0.25
56 | GRSYSASFACLARKELVAEN | < -0.25
57 | KGLEPITTCGVYHGSHWTGG | < -0.25
58 | LWVTPWSPASQTTEGPGTAM | < -0.25
59 | LLELIKNEPN | < -0.25
60 | IYVSGKVPSKIVAEINVGIP | < -0.25
61 | RDREL | < -0.25
62 | SDRRA | < -0.25
63 | VGAENRLLSV | < -0.25
64 | VFRARGQR | -0.246
65 | TNLKVEPVDVDQQAVVSNQI | < -0.25
66 | APIILRRQASLVLSGAQVSS | < -0.25
67 | RIFKFAFRVGAR | < -0.25
68 | SYAQTSPHHYSHSMRLARIP | < -0.25
69 | PNCYVSV | < -0.25
70 | ILGARARDC | < -0.25
71 | RPSHRKLKSRMRMHAGVIPH | < -0.25
72 | LCTCRKCIRNSMRSKIRH | < -0.25

Row | Substance | growth estimate
73 | PGHIQICDMVSWLYVGLGGR | < -0.25
74 | KIDERVNSI | < -0.25
75 | GWAIFITWTYHGGCQACGPL | < -0.25
76 | KEGGCSTEKLTWRNIAAK | < -0.25
77 | YNGGEGERCIGFIVRTLVSP | < -0.25
78 | LTPMSKSLFAQVRFRLRLRV | < -0.25
79 | DIAGRS | < -0.25
80 | RLVTAGLGSGLHPHDTVFPL | < -0.25
81 | LSRLR | < -0.25
82 | SVGHSNPGHPPMCVPTFLGP | < -0.25
83 | GLIRVKDYARWTYLVRPWER | < -0.25
84 | GLRRRDSSRSNTRQAHPQ | < -0.25
85 | GSDVS | < -0.25
86 | QDKSRGPPGPRAAKNPCLRT | < -0.25
87 | DQRTRRGASSQYQ | < -0.25
88 | TVQFGA | < -0.25
89 | NFLLPEAVSGHGCFVLDCNP | < -0.25
90 | IERRPPV | < -0.25
91 | DGLG | < -0.25
92 | GVGLRGCGGAFHDFVTSYGE | < -0.25
93 | LGPTDPRLTGCSRYRYTNAF | < -0.25
94 | RELSHYDAPALRSAG | < -0.25
95 | VEFQNVRIRWDAVHCGHASR | < -0.25
96 | IKSQYRDTGMYVMSLTQGRM | < -0.25

Row | Substance | growth estimate
97 | GKSACS | < -0.25
98 | IDRGGSPWV | < -0.25
99 | WPTLDLLFGLWFGNRRKVAD | < -0.25
100 | PIRYNAAGARYVAFNTVVLR | < -0.25
101 | PDTYLSADRAQV | < -0.25
102 | FRSSNPEFSLM | -0.226
103 | HWEDVY | < -0.25
104 | LTAATRRCPGPTQLLGDPAH | < -0.25
105 | FVDPLMFRDVWSCTVL | < -0.25
106 | LTVYDLGDACSELYRLNARG | < -0.25
107 | ELLAGCLPSLRRQTE | < -0.25
108 | DELGWQRDT | < -0.25
109 | LSSWTGG | < -0.25
110 | VWGRNASKRVDFIGLEAETS | < -0.25
111 | NGLGCEPIAAF | < -0.25
112 | FGEQYNN | < -0.25
113 | SGFGEEQPLTAEFEPPGYKV | < -0.25
114 | VTFL | < -0.25
115 | PVDKANK | < -0.25
116 | SWQRRMDWPDALDRNGGTE | < -0.25
117 | RCADVGTIRPVPK | < -0.25
118 | CTSIIAWSNLGTR | < -0.25
119 | GSFRLGLFPDG | < -0.25
120 | ESIADPPGVARSSRKRPLSW | < -0.25

Row | Substance | growth estimate
121 | LTPGSANRLVDI | < -0.25
122 | DRTSEHVAS | < -0.25
123 | PRMGQTG | < -0.25
124 | NNPTVRPARSGMVCG | < -0.25
125 | TVSTGCVLPPNKL | < -0.25
126 | DVRIIRDT | < -0.25
127 | PPLVSTVPEGTPLLQKPPLA | < -0.25
128 | HRLVQVTVLLYYDYTRRLDW | < -0.25
129 | GVRVCSCM | < -0.25
130 | DLHWFATSLGNATR | -0.0874
131 | TGPHLYYVSHNIFGELTPSP | < -0.25
132 | SFGLHGIRGALKHG | < -0.25
133 | LLEQ | < -0.25
134 | RLLNT | < -0.25
135 | ILRMTWPHYHIGWSVAHKST | < -0.25
136 | AIVCPGA | -0.231
137 | TLFYGSAIQPAEVSFPPIPL | < -0.25
138 | TSCHFFIVPFLMGRETRRSI | < -0.25
139 | CTAVRLSTYVVR | < -0.25
140 | PAVF | < -0.25
141 | AER | < -0.25
142 | SYPQVNVWVIYCTLWAGSIR | < -0.25
143 | WVGSPGDVQHHDAEM | < -0.25
144 | GNCVTLVAQFYDLDLEDIDT | -0.231

Row | Substance | growth estimate
145 | HLHRDIILFPSPGMPADVLT | < -0.25
146 | HKPIASNGYAVILHCEADTY | < -0.25
147 | AMSTINGRSSLKGARGPSQS | < -0.25
148 | TAFGVCWKGRRTMSSAGGVL | < -0.25
149 | GIYW | < -0.25
150 | IGFRH | < -0.25
151 | QSEQTNRAGPDRRGEVWLNA | < -0.25
152 | WYPGIDDSSPPLDRARQTPP | < -0.25
153 | GGTEGGSQTAHTENAFGVCP | < -0.25
154 | CWCQPTFPYKDWEQIVPVST | < -0.25
155 | RTVLFWSLDFSVPLLFNLHG | < -0.25
156 | SRSSVTYSIVVPLESPQVYP | < -0.25
157 | RLGVD | < -0.25
158 | DLALRLKFYVVLGCWVLREV | < -0.25
159 | PVITSLQAPEFRATGMQGLC | < -0.25
160 | SQGLLAGPVNRMCAQLMIPH | < -0.25
161 | NHRRESGSWFF | < -0.25
162 | RYTTPMGTSWHTYLCQLRVI | < -0.25
163 | LYFVRLTLHVRD | < -0.25
164 | VGKHWRWGPRWDN | < -0.25
165 | GRAKYGDQGICVGEG | < -0.25
166 | IPGTC | < -0.25
167 | VGLIWVYCATYRLALALARV | < -0.25
168 | LRRGDTGCLKGITVKPFGSR | < -0.25

Row | Substance | growth estimate
169 | LVGMLESVCGWCSQVESRVG | < -0.25
170 | WHWYSNIFYTSNWGCD | < -0.25
171 | SLHVACS | -0.243
172 | QMLVEMRRYREQSRGEVTQT | < -0.25
173 | HNFNSKSRPGKGPCETRHRY | < -0.25
174 | GCLVLNLRVGRRKVRIFYRP | < -0.25
175 | VCHPGSIGIGSPGIR | < -0.25
176 | WSLGCLRPTGLQ | < -0.25
177 | ISNFPVFRPFGNRSNCRPEG | -0.245
178 | SSVVFTCAISGAGLFDNRWL | < -0.25
179 | VLLVSPAVSPLYPPVTAFMH | < -0.25
180 | RARDGCVR | < -0.25
181 | YPSRKRFQLDLACTECAPPA | < -0.25
182 | KGDSAVNARDHRDIDGLDNE | < -0.25
183 | EQVRSSCERLYFMVGTCEYA | < -0.25
184 | LQMSYPSYAESTCLWTVAGH | < -0.25
185 | PGPLV | < -0.25
186 | VSTGLQVNTERST | < -0.25
187 | KCALGHKGLMPAPKPTEWG | < -0.25
188 | MGASKKFGSGMILAGLQRTS | < -0.25
189 | FGPGFLVDSYER | < -0.25
